Measured values as given in publication doi:10.1101/2025.08.20.671056.
No constants are given. Whether binding was seen depends on the method and setting. Binding seen in cells or lysates may run through a third protein. Some results given as binding are weak or reduced against the parent protein; the word gives no strength.

Protein sequences, listed by entry. Tags and fused reporters are not part of them. Lines headed by an entry give the natural chain unless they say otherwise; changes in a name come on top.
UniProt P28741: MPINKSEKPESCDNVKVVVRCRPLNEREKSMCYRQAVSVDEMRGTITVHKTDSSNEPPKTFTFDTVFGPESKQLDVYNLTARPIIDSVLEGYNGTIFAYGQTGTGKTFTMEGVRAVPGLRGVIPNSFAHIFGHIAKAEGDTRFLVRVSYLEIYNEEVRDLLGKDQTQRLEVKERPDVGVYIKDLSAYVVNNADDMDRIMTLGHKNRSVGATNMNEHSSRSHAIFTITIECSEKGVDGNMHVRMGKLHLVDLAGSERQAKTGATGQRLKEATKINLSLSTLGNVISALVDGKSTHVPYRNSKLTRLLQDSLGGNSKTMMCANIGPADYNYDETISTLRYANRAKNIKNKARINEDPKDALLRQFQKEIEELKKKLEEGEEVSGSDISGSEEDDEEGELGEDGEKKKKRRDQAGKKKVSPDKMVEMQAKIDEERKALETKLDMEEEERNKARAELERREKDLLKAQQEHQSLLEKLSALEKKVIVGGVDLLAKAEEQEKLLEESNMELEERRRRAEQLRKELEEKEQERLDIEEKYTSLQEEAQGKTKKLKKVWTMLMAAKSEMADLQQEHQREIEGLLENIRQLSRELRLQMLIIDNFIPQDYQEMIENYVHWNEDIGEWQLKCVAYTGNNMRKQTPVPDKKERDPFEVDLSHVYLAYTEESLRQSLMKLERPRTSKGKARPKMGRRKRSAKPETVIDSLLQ
UniProt P62258: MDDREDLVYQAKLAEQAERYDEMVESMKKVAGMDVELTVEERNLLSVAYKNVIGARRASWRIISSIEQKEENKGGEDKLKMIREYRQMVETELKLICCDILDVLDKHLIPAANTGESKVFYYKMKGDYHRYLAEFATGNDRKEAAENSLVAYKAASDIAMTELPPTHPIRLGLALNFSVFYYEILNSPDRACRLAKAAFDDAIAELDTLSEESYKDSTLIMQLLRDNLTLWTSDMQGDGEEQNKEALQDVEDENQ

What follows are substances tested against T1, KIF3B-S2 (mouse) (UniProt Q61771) (assay: split reporter).
T1 sequence: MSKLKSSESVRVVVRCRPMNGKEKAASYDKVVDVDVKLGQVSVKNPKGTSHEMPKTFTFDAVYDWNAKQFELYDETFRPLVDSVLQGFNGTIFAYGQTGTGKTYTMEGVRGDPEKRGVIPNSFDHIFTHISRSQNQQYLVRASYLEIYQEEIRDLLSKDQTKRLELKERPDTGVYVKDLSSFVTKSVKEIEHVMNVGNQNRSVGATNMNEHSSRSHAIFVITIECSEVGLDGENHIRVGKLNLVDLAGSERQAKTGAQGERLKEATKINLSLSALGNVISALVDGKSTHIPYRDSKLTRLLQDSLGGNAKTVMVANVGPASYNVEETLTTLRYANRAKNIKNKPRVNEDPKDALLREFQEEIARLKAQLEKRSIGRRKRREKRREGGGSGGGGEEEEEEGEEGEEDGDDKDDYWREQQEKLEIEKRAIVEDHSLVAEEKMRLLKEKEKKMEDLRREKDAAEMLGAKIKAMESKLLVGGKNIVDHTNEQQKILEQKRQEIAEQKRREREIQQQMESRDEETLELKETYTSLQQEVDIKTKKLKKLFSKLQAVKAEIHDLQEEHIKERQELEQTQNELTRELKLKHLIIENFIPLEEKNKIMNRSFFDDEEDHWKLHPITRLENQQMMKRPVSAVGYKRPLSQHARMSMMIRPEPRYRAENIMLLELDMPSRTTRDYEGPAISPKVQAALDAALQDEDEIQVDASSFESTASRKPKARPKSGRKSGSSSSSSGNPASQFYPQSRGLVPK

Question: How did the binding turn out when KIF3A-S1 (from UniProt P28741 1-701) was run?
Answer: The binding was “binds”.

Question: Which binding does the source give for 14-3-3ε-S1 (from UniProt P62258 1-255) here?
Answer: The binding was “binds”.

Question: For “14-3-3ε(K50E)-S1 (from UniProt P62258 1-255)”, which binding is on record?
Answer: The binding was “no binding”.
